In this assay the target is Mycobacterium tuberculosis Csm4 (Cas5), His6-tagged (Mycobacterium tuberculosis) (UniProt P9WJF6). In words: pull-down.

Chains of the proteins cited; added tags and fusions are not shown.
UniProt P9WJF6: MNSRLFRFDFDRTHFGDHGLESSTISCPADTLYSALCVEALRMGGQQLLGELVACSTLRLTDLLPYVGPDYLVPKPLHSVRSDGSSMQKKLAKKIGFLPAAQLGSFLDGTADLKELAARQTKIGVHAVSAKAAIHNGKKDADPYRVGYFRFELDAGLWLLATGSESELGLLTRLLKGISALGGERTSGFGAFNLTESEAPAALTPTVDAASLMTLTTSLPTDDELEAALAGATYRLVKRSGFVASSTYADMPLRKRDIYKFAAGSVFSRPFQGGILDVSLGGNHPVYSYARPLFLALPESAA
UniProt P9WJF4: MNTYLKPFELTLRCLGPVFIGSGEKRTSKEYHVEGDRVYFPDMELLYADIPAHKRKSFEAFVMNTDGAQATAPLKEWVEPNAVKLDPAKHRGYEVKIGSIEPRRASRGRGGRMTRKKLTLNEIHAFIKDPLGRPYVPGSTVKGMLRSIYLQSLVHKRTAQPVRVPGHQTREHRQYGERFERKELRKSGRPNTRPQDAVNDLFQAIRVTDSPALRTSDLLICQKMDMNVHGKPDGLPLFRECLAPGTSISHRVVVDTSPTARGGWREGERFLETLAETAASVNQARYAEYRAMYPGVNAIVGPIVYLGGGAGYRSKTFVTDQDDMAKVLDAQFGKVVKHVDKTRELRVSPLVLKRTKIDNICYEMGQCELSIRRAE

These results are taken from PMC6755085, “Cyclic oligoadenylate signalling mediates Mycobacterium tuberculosis CRISPR defence” (Nucleic Acids Research, 2019).

Results are given in words; binding and its absence hold for the method and conditions named. Binding seen in cells or lysates may run through a third protein. Some results given as binding are weak or reduced against the parent protein; the word gives no strength.

For the substance “Mycobacterium tuberculosis Csm5 (from UniProt P9WJF4 1-375)”, the binding entry is recorded as “binds”.
